Source: PubChem BioAssay AID1259415 (National Center for Advancing Translational Sciences (NCATS), 2018)
Several values for one entry are separate records, joined by “and”; a condition that tells them apart may be missing. Equal values may be shown once. The campaign covered roughly 410,000 compounds. About 18,000 (4.4%) were called active. Inconclusive results, whose numbers are uncertain, are shown with a selection of clear calls. No stated cut-off is given here; in the data, active means activity change below about -60%; inconclusive means no clear call, values can overlap the other calls; inactive means above about -39%. Some structures have more than one record in an assay (separate samples or runs), and their calls can disagree.

Experiment: qHTS Assay for inhibitors of the human cytomegalovirus (HCMV)
Conditions: HFF cells, HCMV-luciferase reporter, 72 h; at 57.5 µM; active compounds read low
In short: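 Compounds were evaluated in HFFs infected with an HCMV luciferase reporter virus (MOI 1 PFU/cell). Luciferase in lysates collected 72 h post infection served as the replication measure.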
On the % scale 0 is the no-effect control and ±100 the full control effect.

| SMILES | activity change, negative = inhibition |
| --- | --- |
| Cc1ccccc1CN1c2ccccc2-c2nc(SCC(=O)c3ccccc3)ncc2S1(=O)=O | inactive: 2.27% |
| CCOC(=O)C1(C)CCN1C(=O)c1ccc(Cl)nc1 (stereo not given) | inactive: 9.03% |
| COc1ccc(C(=O)/C=C/c2ccc(OC)c(Cn3nnc4ccccc43)c2)cc1 | inconclusive: -54.9% |
| Oc1c(Br)cc(-c2ccccc2)cc1Br | inactive: -25.3% |
| Cc1ccc(S(=O)(=O)CC(=O)N2CCN(c3ccc(F)cc3)CC2)cc1 | inconclusive: -56.1% |
| CC(C)(C)C(=O)COc1ccccc1[N+](=O)[O-] | inconclusive: -41.9% |
| COc1ccc2cc3c(N)nn(C(=O)c4cccc(F)c4)c3nc2c1 | active: -80.7% |
| CCn1c(=O)n(-c2ccc3c(c2)OCO3)c2nc(-c3ccc(C(C)C)cc3)nc(C(N)=O)c21 | inactive: -1.78% |
| O=C1N(Cc2cccc(Cl)c2)C[C@@H]2C[C@@H](c3ccco3)N3CCC[C@@]123 | inconclusive: -48.7% |
| COc1ccc2c(c1)[n+](=O)c(C(C)=O)c(C)n2[O-] | inconclusive: -40.4% |
| COc1ccc(CN(C(=O)c2ccc(C)cc2)C2CCS(=O)(=O)C2)cc1 (stereo not given) | inconclusive: -42.9% |
| COC(=O)C1=C(C)N(Cc2ccc(C(F)(F)F)cc2)C(=NCc2ccc3c(c2)OCO3)NC1c1ccccc1 (stereo not given) | active: -99.6% |
| C=CCc1cccc(/C=N/NC(=O)C(C)Nc2cccc(C)c2)c1O (stereo not given) | active: -80.1% |
| O=C(c1cc(C2CC2)nn1-c1ccccc1)N1CCN(S(=O)(=O)c2ccccc2)CC1 | inconclusive: -44.8% |
| CC(=O)c1ccc(-c2nc3c4ccccc4ccn3c2C(C)=O)o1 | active: -64.7% |
| CC(=O)CCSc1ncnc2sc(-c3ccccc3)cc12 | active: -112% |
| CSc1nncc(/C(C)=N\Nc2cccc(C)c2)n1 | inconclusive: -45.5% |
| c1ccc(COc2ccccc2CNc2nn[nH]n2)cc1 | inconclusive: -46.8% |
| COc1cccc(OCc2cc(C(=O)N(C)CCC3CCCCO3)no2)c1 (stereo not given) | inactive: 4.84% |
| Cc1c(O)c2ccccc2oc1=O | inconclusive: -42.4% |
| COc1ccc(/C=N/NC(=O)Cn2nnc3ccccc32)cc1OC | inactive: 35.2% |
| Cc1ccc(CN2[C@@H](CC3CCCCC3)COCCS2(=O)=O)cc1 | active: -70.3% |
| Cc1cccc(C)c1NC(=O)COc1ccccc1C(=O)Nc1ccc(Br)cn1 | active: -65.4% |
| O=[N+]([O-])c1ccc(Cl)cc1NCc1cccnc1 | inconclusive: -43.6% |
| CC(=O)Nc1ccc(SC(Sc2ccc(NC(C)=O)cc2)c2ccccc2)cc1 | inconclusive: -42.7% |
| CCOc1ccc(C(=O)Nc2cc(NC(=O)c3ccc(OCC)c(Cl)c3)cc(C(=O)O)c2)cc1Cl | inconclusive: -55.9% |
| Cc1c(COC(=O)NC(C)C)c(COC(=O)NC(C)C)c2n1CS(=O)(=O)C2 | inconclusive: -44.2% |
| CCc1cccc(NC(=O)CSc2nncn3c2cc2sccc23)c1 | inconclusive: -49.1% |

| SMILES | activity change, negative = inhibition |
| --- | --- |
| CCOc1ccc(Oc2ccccc2NC(=O)CSCC(=O)Nc2cc(C)on2)cc1 | inconclusive: -50.6% |
| CC(=O)NC(CC(=O)OCC(=O)Nc1ccc2c(c1)OCO2)c1ccccc1 (stereo not given) | inactive: -27.6% |
| CCn1c2ccccc2c2cc(CN3CCN(Cc4cc(OC)c(O)c(OC)c4)CC3)ccc21 | inconclusive: -43.9% |
| COc1ccc(CNC(=O)CCS(=O)(=O)c2cc(Br)cc3c2N(C(C)=O)C(C)C3)cc1 (stereo not given) | inactive: -4.39% |
| CCCN(CCC)S(=O)(=O)c1cccc(-c2csc(C)n2)c1 | inconclusive: -42.4% |
| CC(C)(C)C(=O)N1CCc2cc(-c3csc(N)n3)ccc21 | inconclusive: -50.6% |
| CCOc1ccccc1NC(=O)CCCc1nc(-c2ccccc2Cl)no1 | inactive: -30.6% |
| O=C(O)c1ccc(-n2ncc3c2/C(=C/c2cccc([N+](=O)[O-])c2)CC3)cc1 | inactive: 66.5% |
| Cc1cc(C)c(S(=O)(=O)NCC2CCC(C(=O)NCCCN3CCC(C)CC3)CC2)c(C)c1 (stereo not given) | inactive: -16.3% |
| CCCCCC(=O)Nc1cccc(C2=NOC3(C2)C[C@@H](C(N)=O)N(C(=O)Cc2ccc([N+](=O)[O-])cc2)C3)c1 (stereo not given in full) | inactive: 27.6% |
| O=C(CSc1nc(=O)[nH]c2c1CCCC2)NCc1ccccc1Cl | inactive: -6.58% |
| NC(=NCCCCCCN=C(N)/N=C(\N)Nc1ccc(Cl)cc1)/N=C(\N)Nc1ccc(Cl)cc1 | active: -97.7% and active: -94.6% |
| CC(=O)N1c2ccc(S(=O)(=O)NCc3ccccc3Cl)cc2CC1C (stereo not given) | inconclusive: -40.5% |
| O=C(/C=C/c1cccc(Cl)c1)NCc1cccs1 | inconclusive: -47.6% |
| CCOP(=O)(O)c1cccc(OCCOCCOc2cccc(P(=O)(O)OCC)c2)c1 | inactive: 22.5% |
| COc1ccc(N2CCN(C(=O)C3CCCN(C(=O)c4cc5sccc5n4C)C3)CC2)cc1 (stereo not given) | inactive: -14.9% |
| Cc1ccc(S(=O)(=O)NC(CC(=O)O)c2cccs2)cc1 (stereo not given) | inconclusive: -50.3% |
| Cc1ccc(C)c(N2CCN(C(=O)c3cc4c(C)nc5ccccc5c4o3)CC2)c1 | inconclusive: -50.5% |
| CNC(=O)Oc1ccc(C(=O)N2c3ccccc3NC(=O)C2C)cc1 (stereo not given) | inconclusive: -42.7% |
| Cc1ccccc1N(CC(=O)NCc1ccco1)C(=O)CCC(=O)Nc1nccs1 | inconclusive: -56.9% |
| CC(C)(C)C(=O)C(Oc1ccc(Cl)cc1)n1ccnc1 (stereo not given) | inactive: -18.4% |
| COc1cc2c(c(OC)c1OC)-c1c(cc3c(c1OC)OCO3)[C@@H](OC(C)=O)[C@H](C)[C@H](C)C2 | inactive: -17.2% |
| CCOC(=O)C(Cc1ccc(O)c([N+](=O)[O-])c1)N1C(=O)c2ccccc2C1=O (stereo not given) | inactive: 3.45% |
| COc1ccccc1Cn1c(C)nc2ccccc21 | inactive: -4.15% |
| C=CCN1C(=O)NC(=O)/C(=C/c2ccoc2)C1=O | inconclusive: -46.5% |
| COC(=O)c1[nH]c2ccccc2c1NC(=O)C(C)N1CCN(C(=O)c2ccco2)CC1 (stereo not given) | inactive: 67.7% |
| COc1ccc(-c2cc(C(=O)Nc3sc4c(c3C(N)=O)CCCC4)no2)cc1 | inactive: 21.3% |

Structural class, the compounds so far containing an NH in an aromatic ring (three)

| SMILES | activity change, negative = inhibition |
| --- | --- |
| c1ccc(COc2ccccc2CNc2nn[nH]n2)cc1 | inconclusive: -46.8% |
| O=C(CSc1nc(=O)[nH]c2c1CCCC2)NCc1ccccc1Cl | inactive: -6.58% |
| COC(=O)c1[nH]c2ccccc2c1NC(=O)C(C)N1CCN(C(=O)c2ccco2)CC1 (stereo not given) | inactive: 67.7% |
